Reference: patent US9469650B2, “Melampomagnolide B derivatives” (BOARD OF TRUSTEES OF THE UNIVERSITY OF ARKANSAS, priority 2013, dated 2016)
At least one read-out could not be matched to a standard name with certainty.

Assays:
[1] = system: MCF7; assay: panel of 60 human tumor cell lines, growth inhibition (Breast Cancer)
[2] = system: NCI/ADR-RES; assay: panel of 60 human tumor cell lines, growth inhibition (Ovarian Cancer)
[3] = system: U251; assay: panel of 60 human tumor cell lines, growth inhibition (CNS Cancer)
[4] = system: OVCAR-8; assay: panel of 60 human tumor cell lines, growth inhibition (Ovarian Cancer)
[5] = system: MDA-MB-435; assay: panel of 60 human tumor cell lines, growth inhibition (Melanoma)
[6] = system: NCI-H522; assay: panel of 60 human tumor cell lines, growth inhibition (Non-Small Cell Lung Cancer)
[7] = system: DU-145; assay: panel of 60 human tumor cell lines, growth inhibition (Prostate Cancer)
[8] = system: SW-620; assay: panel of 60 human tumor cell lines, growth inhibition (Colon Cancer)
[9] = system: MOLT-4; assay: panel of 60 human tumor cell lines, growth inhibition (Leukemia)
[10] = system: UACC-62; assay: panel of 60 human tumor cell lines, growth inhibition (Melanoma)
[11] = system: NCI-H460; assay: panel of 60 human tumor cell lines, growth inhibition (Non-Small Cell Lung Cancer)
[12] = system: BT-549; assay: panel of 60 human tumor cell lines, growth inhibition (Breast Cancer); settings: 81-549
[13] = system: HOP-92; assay: panel of 60 human tumor cell lines, growth inhibition (Non-Small Cell Lung Cancer)
[14] = system: NCI-H23; assay: as above
[15] = system: NCI-H226; assay: as above
[16] = system: OVCAR-4; assay: panel of 60 human tumor cell lines, growth inhibition (Ovarian Cancer); assay type: cell-based
[17] = system: ACHN; assay: panel of 60 human tumor cell lines, growth inhibition (Renal Cancer)
[18] = system: HCT-15; assay: panel of 60 human tumor cell lines, growth inhibition (Colon Cancer)
[19] = system: CAKI-1; assay: panel of 60 human tumor cell lines, growth inhibition (Renal Cancer)
[20] = system: IGROV1; assay: panel of 60 human tumor cell lines, growth inhibition (Ovarian Cancer); settings: IGROVI
[21] = system: SK-OV-3; assay: as above

`C=C1C(=O)O[C@H]2[C@H]1CC/C(COC(=O)OCCN(C)C)=C\CC[C@@]1(C)O[C@@H]21` [JVM 2-35] was tested, and the “Percent Growth” value ([1]; Log10 Concentration −4.0) was −70%, the “Percent Growth” value ([1]; Log10 Concentration −5.0) was 9% and the “Percent Growth” value ([1]; Log10 Concentration −6.0) was 86%. The “Percent Growth” value ([1]; Log10 Concentration −7.0) was 85%, the “Percent Growth” value ([1]; Log10 Concentration −8.0) was 91% and the “Percent Growth” value ([2]; Log10 Concentration −4.0) was −7%. The “Percent Growth” value ([2]; Log10 Concentration −5.0) was 84%, the “Percent Growth” value ([2]; Log10 Concentration −6.0) was 103% and the “Percent Growth” value ([2]; Log10 Concentration −7.0) was 101%. The “Percent Growth” value ([2]; Log10 Concentration −8.0) was 97%, the “Percent Growth” value ([3]; Log10 Concentration −4.0) was −49% and the “Percent Growth” value ([3]; Log10 Concentration −5.0) was 94%. For the same compound, the “Percent Growth” value ([3]; Log10 Concentration −6.0) was 97%, the “Percent Growth” value ([3]; Log10 Concentration −7.0) was 92% and the “Percent Growth” value ([3]; Log10 Concentration −8.0) was 92%. The “Percent Growth” value ([4]; Log10 Concentration −4.0) was −52%, the “Percent Growth” value ([4]; Log10 Concentration −5.0) was 65% and the “Percent Growth” value ([4]; Log10 Concentration −6.0) was 103%. The “Percent Growth” value ([4]; Log10 Concentration −7.0) was 102%, the “Percent Growth” value ([4]; Log10 Concentration −8.0) was 102% and the “Percent Growth” value ([5]; Log10 Concentration −4.0) was −88%. For the same compound, the “Percent Growth” value ([5]; Log10 Concentration −5.0) was 24%, the “Percent Growth” value ([5]; Log10 Concentration −6.0) was 90% and the “Percent Growth” value ([5]; Log10 Concentration −7.0) was 90%. The “Percent Growth” value ([5]; Log10 Concentration −8.0) was 97%, the “Percent Growth” value ([6]; Log10 Concentration −4.0) was −68% and the “Percent Growth” value ([6]; Log10 Concentration −5.0) was −52%. For the same compound, the “Percent Growth” value ([6]; Log10 Concentration −6.0) was 72%, the “Percent Growth” value ([6]; Log10 Concentration −7.0) was 90% and the “Percent Growth” value ([6]; Log10 Concentration −8.0) was 87%. The “Percent Growth” value ([7]; Log10 Concentration −4.0) was −96%, the “Percent Growth” value ([7]; Log10 Concentration −5.0) was 13% and the “Percent Growth” value ([7]; Log10 Concentration −6.0) was 96%. The “Percent Growth” value ([7]; Log10 Concentration −7.0) was 100%, the “Percent Growth” value ([7]; Log10 Concentration −8.0) was 101% and the “Percent Growth” value ([8]; Log10 Concentration −4.0) was −78%. For the same compound, the “Percent Growth” value ([8]; Log10 Concentration −5.0) was 17%, the “Percent Growth” value ([8]; Log10 Concentration −6.0) was 91% and the “Percent Growth” value ([8]; Log10 Concentration −7.0) was 97%. The “Percent Growth” value ([8]; Log10 Concentration −8.0) was 99%, the “Percent Growth” value ([9]; Log10 Concentration −4.0) was −49% and the “Percent Growth” value ([9]; Log10 Concentration −5.0) was 35%. For the same compound, the “Percent Growth” value ([9]; Log10 Concentration −6.0) was 92%, the “Percent Growth” value ([9]; Log10 Concentration −7.0) was 104% and the “Percent Growth” value ([9]; Log10 Concentration −8.0) was 102%. The “Percent Growth” value ([10]; Log10 Concentration −4.0) was −95%, the “Percent Growth” value ([10]; Log10 Concentration −5.0) was 40% and the “Percent Growth” value ([10]; Log10 Concentration −6.0) was 86%. The “Percent Growth” value ([10]; Log10 Concentration −7.0) was 94%, the “Percent Growth” value ([10]; Log10 Concentration −8.0) was 96% and the “Percent Growth” value ([11]; Log10 Concentration −4.0) was −35%. The “Percent Growth” value ([11]; Log10 Concentration −5.0) was 90%, the “Percent Growth” value ([11]; Log10 Concentration −6.0) was 98% and the “Percent Growth” value ([11]; Log10 Concentration −7.0) was 100%. For the same compound, the “Percent Growth” value ([11]; Log10 Concentration −8.0) was 101%, the “Percent Growth” value ([12]; Log10 Concentration −4.0) was −98% and the “Percent Growth” value ([12]; Log10 Concentration −5.0) was 40%. For the same compound, the “Percent Growth” value ([12]; Log10 Concentration −6.0) was 82%, the “Percent Growth” value ([12]; Log10 Concentration −7.0) was 84% and the “Percent Growth” value ([12]; Log10 Concentration −8.0) was 95%. For the same compound, the “Percent Growth” value ([13]; Log10 Concentration −4.0) was −91%, the “Percent Growth” value ([13]; Log10 Concentration −6.0) was 87% and the “Percent Growth” value ([13]; Log10 Concentration −7.0) was 93%. The “Percent Growth” value ([13]; Log10 Concentration −8.0) was 98%, the “Percent Growth” value ([14]; Log10 Concentration −4.0) was −55% and the “Percent Growth” value ([14]; Log10 Concentration −5.0) was 77%. The “Percent Growth” value ([14]; Log10 Concentration −6.0) was 97%, the “Percent Growth” value ([14]; Log10 Concentration −7.0) was 98% and the “Percent Growth” value ([14]; Log10 Concentration −8.0) was 94%. For the same compound, the “Percent Growth” value ([15]; Log10 Concentration −4.0) was −55%, the “Percent Growth” value ([15]; Log10 Concentration −5.0) was 58% and the “Percent Growth” value ([15]; Log10 Concentration −6.0) was 89%. The “Percent Growth” value ([15]; Log10 Concentration −7.0) was 91%, the “Percent Growth” value ([15]; Log10 Concentration −8.0) was 93% and the “Percent Growth” value ([16]; Log10 Concentration −4.0) was −96%. For the same compound, the “Percent Growth” value ([16]; Log10 Concentration −5.0) was 35%, the “Percent Growth” value ([16]; Log10 Concentration −6.0) was 85% and the “Percent Growth” value ([16]; Log10 Concentration −7.0) was 87%. For the same compound, the “Percent Growth” value ([16]; Log10 Concentration −8.0) was 96%, the “Percent Growth” value ([17]; Log10 Concentration −4.0) was −90% and the “Percent Growth” value ([17]; Log10 Concentration −5.0) was 13%. The “Percent Growth” value ([17]; Log10 Concentration −6.0) was 89%, the “Percent Growth” value ([17]; Log10 Concentration −7.0) was 98% and the “Percent Growth” value ([17]; Log10 Concentration −8.0) was 103%. For the same compound, the “Percent Growth” value ([18]; Log10 Concentration −4.0) was −83%, the “Percent Growth” value ([18]; Log10 Concentration −5.0) was 10% and the “Percent Growth” value ([18]; Log10 Concentration −6.0) was 82%. For the same compound, the “Percent Growth” value ([18]; Log10 Concentration −7.0) was 92%, the “Percent Growth” value ([18]; Log10 Concentration −8.0) was 95% and the “Percent Growth” value ([19]; Log10 Concentration −4.0) was −99%. For the same compound, the “Percent Growth” value ([19]; Log10 Concentration −5.0) was 24%, the “Percent Growth” value ([19]; Log10 Concentration −6.0) was 77% and the “Percent Growth” value ([19]; Log10 Concentration −7.0) was 86%. The “Percent Growth” value ([19]; Log10 Concentration −8.0) was 93%, the “Percent Growth” value ([20]; Log10 Concentration −4.0) was −45% and the “Percent Growth” value ([20]; Log10 Concentration −5.0) was 81%. The “Percent Growth” value ([20]; Log10 Concentration −6.0) was 101%, the “Percent Growth” value ([20]; Log10 Concentration −7.0) was 100% and the “Percent Growth” value ([20]; Log10 Concentration −8.0) was 101%. For the same compound, the “Percent Growth” value ([21]; Log10 Concentration −4.0) was −8%, the “Percent Growth” value ([21]; Log10 Concentration −5.0) was 96% and the “Percent Growth” value ([21]; Log10 Concentration −6.0) was 99%. For the same compound, the “Percent Growth” value ([21]; Log10 Concentration −7.0) was 101% and the “Percent Growth” value ([21]; Log10 Concentration −8.0) was 102%.
